{"source": "patent US4818748A", "about": "(Bayer Aktiengesellschaft, priority 1986, dated 1989)", "test": "general procedure: solution-phase peptide synthesis; DCC/HOBT; propane-phosphonic acid anhydride", "details": "late stage modification step; run 1", "data": [{"substance": "N-Benzyloxycarbonyl-L-phenylalanyl-L-histidyl-4S-amino-3S-hydroxy-5-(4-nitrophenyl)pentanoyl-L-isoleucine methyl ester", "values": [{"measurement": "step yield", "result": "15% of theory"}]}]}
